Data: paper PMC6318328, “Structural insights into trans-histone regulation of H3K4 methylation by unique histone H4 binding of MLL3/4” (Nature Communications, 2019)
Results are given in words; binding and its absence hold for the method and conditions named.

Assays:
Experiment in all cases: condition: peptide 1–2 mM in the syringe, protein 50–100 μM in the cell; ITC; peptide (1–2 mM) in the syringe injected into protein (50–100 μM) in the cell; 25 °C; 20 mM Tris pH 7.5, 150 mM NaCl; single-site binding model; both purified
[1] = target: T1, MLL3_(ePHD6)_(1055–1144) (human) (UniProt Q8NEZ4)
T1 sequence: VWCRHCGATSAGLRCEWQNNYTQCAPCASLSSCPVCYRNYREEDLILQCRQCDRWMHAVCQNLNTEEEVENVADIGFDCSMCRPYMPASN

[2] = target: T2, MLL3_(PHD5)_(1009–1055) (human) (UniProt Q8NEZ4)
T2 sequence: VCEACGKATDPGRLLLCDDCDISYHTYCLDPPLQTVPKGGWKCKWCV

[3] = target: T3, MLL3_(ePHD3)_(436–525) (human) (UniProt Q8NEZ4)
T3 sequence: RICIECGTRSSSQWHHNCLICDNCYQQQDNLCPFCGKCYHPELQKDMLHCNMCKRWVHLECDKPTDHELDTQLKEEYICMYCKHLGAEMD

Row | Substance | binding [1] | binding [2] | binding [3]
1 | histone H3 peptide H3_(1–15)K4me3 (from UniProt P68431 2-16) | no binding | – | –
2 | histone H4 peptide H4_(1–12) (from UniProt P62805 2-13) | no binding | – | –
3 | histone H3 peptide H3_(1–20) (from UniProt P68431 2-21) | no binding | – | –
4 | histone H4 peptide H4_(1–12)R3me2a (from UniProt P62805 2-13) | no binding | – | –
5 | histone H4 peptide H4_(11–21) (from UniProt P62805 12-22) | – | no binding | no binding
6 | histone H3 peptide H3_(1–15)K4me2 (from UniProt P68431 2-16) | no binding | – | –
